# Square brackets hold non-standard residues; d marks the D form. * marks the point of attachment. His(Trt) = N[C@@H](Cc1cn(C(c2ccccc2)(c2ccccc2)c2ccccc2)cn1)C(=O)O; Boc = CC(C)(C)OC(=O)*; OtBu = CC(C)(C)O*
# What was measured:
# [1] = general procedure: hybrid (solid and solution phase) peptide synthesis; CTC resin; DIC/HOBt/collidine; DIC/HOBt; OSu active esters; settings: whole synthesis
# [2] = general procedure: hybrid (solid and solution phase) peptide synthesis; CTC resin (fragments); Wang resin; DIC/HOBt/collidine; DIC/HOBt; OSu active esters; settings: for final HPLC purity / final purity (method not given) / crude purity (method not given): HPLC
# [3] = whole synthesis, scale of the general procedure 200 g CTC resin (0.8 mmol/g)
substance,measurement,setting,value
Boc-[His(Trt)]AE(OtBu)G-OH,crude HPLC purity,"[1]; HPLC, scale of the general procedure 200 g CTC resin (0.8 mmol/g)",71.9%
same,final HPLC purity,[2]; [3],94.0%
same,isolated yield,[2]; [3],46.2%
"Fmoc-Thr(tBu)-Phe-Thr(tBu)-Ser(tBu)-Asp(OtBu)-Val-Ser(tBu)-Ser(Ψ^Me,Mepro)-Tyr(tBu)-Leu-Glu(OtBu)-Gly-OH",crude yield,[1]; scale of the general procedure 200 g CTC resin (0.8 mmol/g),45.2%
H-Gln(Trt)-Ala-Ala-Lys(Pal-Glu-OtBu)-Glu(OtBu)-Phe-Ile-Ala-Trp-Leu-Val-Arg(Pbf)-Gly-Arg(Pbf)-Gly-OH,crude mass,[1]; scale 1 mmol,3.12 g
same,crude yield,"[2]; whole synthesis, scale 1 mmol",100%
His-Ala-Glu-Gly-Thr-Phe-Thr-Ser-Asp-Val-Ser-Ser-Tyr-Leu-Glu-Gly-Gln-Ala-Ala-Lys(Pal-Glu)-Glu-Phe-Ile-Ala-Trp-Leu-Val-Arg-Gly-Arg-Gly-OH,step yield,[2]; coupling step,44%
same,final HPLC purity,[2]; purification step,>98.0%
same,final purity (method not given),"[2]; purification step, run 1",more than 97%
same,final purity (method not given),"[2]; purification step, run 2",more than 98.5%
same,step yield,"[2]; purification step, run 1",40%
same,step yield,"[2]; purification step, run 2",45% yield
same,final purity (method not given),[2]; [3],99.4%
same,crude purity (method not given),"[2]; whole synthesis, scale of the general procedure 200 g CTC resin (0.8 mmol/g), run 1",64.5%
same,crude purity (method not given),"[2]; whole synthesis, scale of the general procedure 200 g CTC resin (0.8 mmol/g), run 2",56.5% purity

# Reference: US20180057558 (published 2018)
